Test results as given in PMC6429502, “Synthesis and AChE-Inhibitory Activity of New Benzimidazole Derivatives” (Molecules, 2019).
Not every entry of the source has a single result; some have several. Only these are listed. An entry can have further records. The values listed for one entry do not match, cause unknown; dose, time, organism, isomer or construct need not be as stated for each record.

Chains of the proteins cited; added tags and fusions are not shown. Residues count along the entry.
UniProt O42275, 24-633 limits assumed: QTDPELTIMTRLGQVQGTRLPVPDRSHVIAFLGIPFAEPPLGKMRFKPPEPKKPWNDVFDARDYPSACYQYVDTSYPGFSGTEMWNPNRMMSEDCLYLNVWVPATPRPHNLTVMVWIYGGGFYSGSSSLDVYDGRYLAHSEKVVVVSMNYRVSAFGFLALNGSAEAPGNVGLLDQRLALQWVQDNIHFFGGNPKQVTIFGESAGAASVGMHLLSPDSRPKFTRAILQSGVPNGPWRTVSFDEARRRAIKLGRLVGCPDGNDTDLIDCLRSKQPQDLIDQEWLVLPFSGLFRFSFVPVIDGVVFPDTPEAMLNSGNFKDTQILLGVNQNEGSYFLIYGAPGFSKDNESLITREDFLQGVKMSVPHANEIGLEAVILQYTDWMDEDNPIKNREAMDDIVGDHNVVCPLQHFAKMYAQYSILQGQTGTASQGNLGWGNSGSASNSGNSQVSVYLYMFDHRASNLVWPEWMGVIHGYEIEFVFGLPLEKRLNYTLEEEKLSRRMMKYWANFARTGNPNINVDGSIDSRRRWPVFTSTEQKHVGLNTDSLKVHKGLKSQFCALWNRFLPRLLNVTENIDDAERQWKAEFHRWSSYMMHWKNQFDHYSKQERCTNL

Target: AChE (Electrophorus electricus, UniProt O42275)
Conditions: 10^−4 M

Row | SMILES | % Inhibition AChE
1 | Cn1c(SCC(=O)c2ccc(O)c(O)c2)nnc1-c1ccc(-c2nc3cc(F)ccc3[nH]2)cc1 [3l, 2-(4-(4-Methyl-5-(2-(3,4-dihydroxyphenyl)-2-oxo-ethylthio)-4H-1,2,4-triazol-3yl)-phenyl)-5(6)-fluoro-1H-benzimidazole] | more than 50% and 83.20 ± 1.13%
2 | CCn1c(SCC(=O)c2ccc(O)c(O)c2)nnc1-c1ccc(-c2nc3cc(F)ccc3[nH]2)cc1 [3p, 2-(4-(4-Ethyl-5-(2-(3,4-dihydroxyphenyl)-2-oxo-ethylthio)-4H-1,2,4-triazol-3yl)-phenyl)-5(6)-fluoro-1H-benzimidazole] | more than 50% and 81.25 ± 1.88%
